Reference: the supplement of paper PMC10849652
This is one part of the list.

Amino acid sequences for entries named in this document (tags omitted). A change or cut given only in a name is not applied to a line headed by its entry.
UniProt Q9UBS8: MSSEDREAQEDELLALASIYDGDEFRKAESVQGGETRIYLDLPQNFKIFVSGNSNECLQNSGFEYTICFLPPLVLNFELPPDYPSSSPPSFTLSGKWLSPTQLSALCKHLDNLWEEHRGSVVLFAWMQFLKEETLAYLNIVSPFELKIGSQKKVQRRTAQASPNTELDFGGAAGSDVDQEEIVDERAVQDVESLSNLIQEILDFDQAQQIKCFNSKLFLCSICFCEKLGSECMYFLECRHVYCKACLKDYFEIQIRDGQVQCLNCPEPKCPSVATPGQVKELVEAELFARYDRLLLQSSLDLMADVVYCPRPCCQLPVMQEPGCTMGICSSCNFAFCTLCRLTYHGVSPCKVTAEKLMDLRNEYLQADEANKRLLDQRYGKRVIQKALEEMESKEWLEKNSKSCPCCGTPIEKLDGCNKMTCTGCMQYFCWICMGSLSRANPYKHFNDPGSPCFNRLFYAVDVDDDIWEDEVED
UniProt Q9Y508: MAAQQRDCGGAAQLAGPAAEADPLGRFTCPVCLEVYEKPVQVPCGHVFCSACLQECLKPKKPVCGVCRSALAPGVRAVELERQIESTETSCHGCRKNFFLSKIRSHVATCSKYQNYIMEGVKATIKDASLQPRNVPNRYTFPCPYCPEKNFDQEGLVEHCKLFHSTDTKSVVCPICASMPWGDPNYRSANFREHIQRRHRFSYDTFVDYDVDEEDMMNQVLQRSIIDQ
UniProt Q9BQY4: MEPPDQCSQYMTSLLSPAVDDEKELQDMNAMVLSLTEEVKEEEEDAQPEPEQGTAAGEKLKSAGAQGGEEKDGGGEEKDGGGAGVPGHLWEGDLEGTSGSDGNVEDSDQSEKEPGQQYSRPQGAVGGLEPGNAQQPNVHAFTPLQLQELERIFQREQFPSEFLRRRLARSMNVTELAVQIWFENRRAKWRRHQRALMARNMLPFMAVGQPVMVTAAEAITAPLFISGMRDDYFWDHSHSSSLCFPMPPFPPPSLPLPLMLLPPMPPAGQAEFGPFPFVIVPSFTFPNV
UniProt O00287: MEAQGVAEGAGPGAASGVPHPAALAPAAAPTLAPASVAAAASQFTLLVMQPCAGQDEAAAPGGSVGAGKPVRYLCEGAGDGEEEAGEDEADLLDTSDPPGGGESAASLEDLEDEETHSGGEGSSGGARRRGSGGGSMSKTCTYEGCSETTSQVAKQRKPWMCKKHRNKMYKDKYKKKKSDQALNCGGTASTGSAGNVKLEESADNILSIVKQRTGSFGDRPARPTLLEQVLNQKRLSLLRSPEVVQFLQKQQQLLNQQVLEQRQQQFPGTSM
UniProt Q969G6: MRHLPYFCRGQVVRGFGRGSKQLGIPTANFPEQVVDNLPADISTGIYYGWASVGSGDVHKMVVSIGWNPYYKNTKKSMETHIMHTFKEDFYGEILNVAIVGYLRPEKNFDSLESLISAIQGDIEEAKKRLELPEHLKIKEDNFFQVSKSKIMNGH
UniProt O15541: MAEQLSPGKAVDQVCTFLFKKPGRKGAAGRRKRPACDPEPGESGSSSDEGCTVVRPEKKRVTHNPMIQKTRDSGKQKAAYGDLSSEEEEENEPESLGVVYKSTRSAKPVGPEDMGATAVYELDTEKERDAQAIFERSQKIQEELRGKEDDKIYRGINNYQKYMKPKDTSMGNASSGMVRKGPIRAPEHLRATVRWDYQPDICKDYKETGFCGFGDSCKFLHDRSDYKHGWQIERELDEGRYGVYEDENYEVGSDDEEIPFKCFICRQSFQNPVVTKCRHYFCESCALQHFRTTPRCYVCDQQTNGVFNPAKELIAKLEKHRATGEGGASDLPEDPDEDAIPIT
UniProt Q96HR9: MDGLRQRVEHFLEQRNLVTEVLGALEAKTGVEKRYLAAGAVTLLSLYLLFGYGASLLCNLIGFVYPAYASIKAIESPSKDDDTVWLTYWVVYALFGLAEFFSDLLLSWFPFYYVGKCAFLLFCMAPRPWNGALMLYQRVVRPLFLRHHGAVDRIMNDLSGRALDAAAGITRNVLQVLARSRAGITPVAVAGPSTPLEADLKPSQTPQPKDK
UniProt P62877, whole entry, looked up: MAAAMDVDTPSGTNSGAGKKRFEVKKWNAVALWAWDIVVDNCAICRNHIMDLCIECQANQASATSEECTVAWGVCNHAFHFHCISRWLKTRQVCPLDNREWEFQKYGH
UniProt Q9P258, whole entry, looked up: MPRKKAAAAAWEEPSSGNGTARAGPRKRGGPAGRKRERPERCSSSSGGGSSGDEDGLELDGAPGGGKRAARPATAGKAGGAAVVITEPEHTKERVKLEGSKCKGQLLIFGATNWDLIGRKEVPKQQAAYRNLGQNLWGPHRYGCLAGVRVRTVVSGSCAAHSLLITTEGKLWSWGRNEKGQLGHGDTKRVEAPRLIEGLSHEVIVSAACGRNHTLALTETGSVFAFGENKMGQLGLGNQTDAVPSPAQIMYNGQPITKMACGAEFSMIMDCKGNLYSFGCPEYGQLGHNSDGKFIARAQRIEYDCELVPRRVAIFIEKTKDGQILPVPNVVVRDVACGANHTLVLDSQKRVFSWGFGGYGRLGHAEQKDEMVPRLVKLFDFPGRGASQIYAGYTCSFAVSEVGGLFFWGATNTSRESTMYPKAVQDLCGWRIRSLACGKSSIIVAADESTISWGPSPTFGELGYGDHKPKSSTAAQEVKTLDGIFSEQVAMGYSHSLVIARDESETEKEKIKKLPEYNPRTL
UniProt P84095: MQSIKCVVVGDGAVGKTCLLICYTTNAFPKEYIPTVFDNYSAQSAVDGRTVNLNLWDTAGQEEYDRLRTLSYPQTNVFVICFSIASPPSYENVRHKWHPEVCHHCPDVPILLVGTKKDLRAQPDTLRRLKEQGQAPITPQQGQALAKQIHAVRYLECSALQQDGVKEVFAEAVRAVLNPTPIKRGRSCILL
UniProt P62745, whole entry, looked up: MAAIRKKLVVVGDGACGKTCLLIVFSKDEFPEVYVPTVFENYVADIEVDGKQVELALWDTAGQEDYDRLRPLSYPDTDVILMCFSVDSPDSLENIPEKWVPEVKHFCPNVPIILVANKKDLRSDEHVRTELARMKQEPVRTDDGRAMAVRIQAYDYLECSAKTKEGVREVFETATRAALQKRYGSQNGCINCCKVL
UniProt Q9Y2P8: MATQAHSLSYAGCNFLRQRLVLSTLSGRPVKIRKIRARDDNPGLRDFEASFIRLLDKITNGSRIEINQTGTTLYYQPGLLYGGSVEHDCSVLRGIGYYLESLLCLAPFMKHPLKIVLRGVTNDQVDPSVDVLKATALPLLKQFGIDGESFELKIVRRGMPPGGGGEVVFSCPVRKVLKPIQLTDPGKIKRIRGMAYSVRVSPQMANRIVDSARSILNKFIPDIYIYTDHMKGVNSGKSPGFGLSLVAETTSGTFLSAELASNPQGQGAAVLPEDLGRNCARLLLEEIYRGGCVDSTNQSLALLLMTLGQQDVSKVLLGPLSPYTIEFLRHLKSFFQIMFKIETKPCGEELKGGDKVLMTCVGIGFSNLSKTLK
UniProt Q96D71: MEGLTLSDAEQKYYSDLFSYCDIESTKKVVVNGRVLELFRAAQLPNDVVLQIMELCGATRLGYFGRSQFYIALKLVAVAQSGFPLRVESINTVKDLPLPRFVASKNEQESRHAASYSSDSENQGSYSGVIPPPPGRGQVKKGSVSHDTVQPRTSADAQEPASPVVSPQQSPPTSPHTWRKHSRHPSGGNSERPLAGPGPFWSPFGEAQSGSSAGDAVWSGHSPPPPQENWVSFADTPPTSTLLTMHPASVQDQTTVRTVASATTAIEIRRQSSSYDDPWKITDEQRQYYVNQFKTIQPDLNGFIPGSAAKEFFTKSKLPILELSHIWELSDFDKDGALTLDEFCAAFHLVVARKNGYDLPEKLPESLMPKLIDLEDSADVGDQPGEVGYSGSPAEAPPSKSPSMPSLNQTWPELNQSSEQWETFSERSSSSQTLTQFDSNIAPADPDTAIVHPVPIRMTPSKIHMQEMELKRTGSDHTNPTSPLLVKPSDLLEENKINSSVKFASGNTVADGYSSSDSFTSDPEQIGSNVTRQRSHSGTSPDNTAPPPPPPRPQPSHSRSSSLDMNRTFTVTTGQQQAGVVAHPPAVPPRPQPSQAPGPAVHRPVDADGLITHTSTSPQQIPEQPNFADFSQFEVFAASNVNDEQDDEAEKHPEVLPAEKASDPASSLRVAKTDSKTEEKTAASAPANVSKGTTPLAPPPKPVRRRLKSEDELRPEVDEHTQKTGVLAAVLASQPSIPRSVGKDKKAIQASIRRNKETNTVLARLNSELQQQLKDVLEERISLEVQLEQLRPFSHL
UniProt Q9NTX7: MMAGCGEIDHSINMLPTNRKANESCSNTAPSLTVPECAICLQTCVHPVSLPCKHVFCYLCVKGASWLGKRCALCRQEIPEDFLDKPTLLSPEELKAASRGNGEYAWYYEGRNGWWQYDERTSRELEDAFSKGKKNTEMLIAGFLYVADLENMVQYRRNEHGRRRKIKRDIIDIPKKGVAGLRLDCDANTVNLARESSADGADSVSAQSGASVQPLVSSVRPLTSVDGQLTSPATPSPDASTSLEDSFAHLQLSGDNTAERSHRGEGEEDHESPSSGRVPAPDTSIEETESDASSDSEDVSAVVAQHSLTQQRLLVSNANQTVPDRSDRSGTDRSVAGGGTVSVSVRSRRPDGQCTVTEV
UniProt Q96GF1: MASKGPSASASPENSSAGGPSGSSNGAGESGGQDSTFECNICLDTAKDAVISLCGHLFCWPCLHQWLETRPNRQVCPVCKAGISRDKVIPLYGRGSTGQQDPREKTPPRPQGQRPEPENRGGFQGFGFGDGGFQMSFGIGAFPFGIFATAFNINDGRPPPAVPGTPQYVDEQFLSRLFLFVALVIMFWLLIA
UniProt P34096: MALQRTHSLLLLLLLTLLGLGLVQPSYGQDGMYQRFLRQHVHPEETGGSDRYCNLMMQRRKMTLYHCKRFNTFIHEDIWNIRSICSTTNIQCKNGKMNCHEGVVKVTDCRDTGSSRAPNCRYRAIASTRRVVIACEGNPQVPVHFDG
UniProt Q8IYW5, whole entry, looked up: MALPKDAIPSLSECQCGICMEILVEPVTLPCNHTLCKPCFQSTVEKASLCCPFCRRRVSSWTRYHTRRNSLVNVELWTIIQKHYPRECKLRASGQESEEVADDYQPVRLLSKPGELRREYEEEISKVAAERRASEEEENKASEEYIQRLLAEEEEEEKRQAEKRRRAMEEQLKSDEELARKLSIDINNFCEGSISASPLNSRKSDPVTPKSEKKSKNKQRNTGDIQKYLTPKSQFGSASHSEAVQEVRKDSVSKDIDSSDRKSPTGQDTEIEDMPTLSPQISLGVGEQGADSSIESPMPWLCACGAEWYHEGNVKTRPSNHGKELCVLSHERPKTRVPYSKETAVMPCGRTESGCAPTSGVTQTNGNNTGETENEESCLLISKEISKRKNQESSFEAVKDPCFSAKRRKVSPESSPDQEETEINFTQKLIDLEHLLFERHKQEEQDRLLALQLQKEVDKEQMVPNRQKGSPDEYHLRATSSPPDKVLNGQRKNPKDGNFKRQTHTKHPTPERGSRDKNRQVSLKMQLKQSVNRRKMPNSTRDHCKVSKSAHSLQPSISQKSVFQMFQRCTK
UniProt A6NEQ0: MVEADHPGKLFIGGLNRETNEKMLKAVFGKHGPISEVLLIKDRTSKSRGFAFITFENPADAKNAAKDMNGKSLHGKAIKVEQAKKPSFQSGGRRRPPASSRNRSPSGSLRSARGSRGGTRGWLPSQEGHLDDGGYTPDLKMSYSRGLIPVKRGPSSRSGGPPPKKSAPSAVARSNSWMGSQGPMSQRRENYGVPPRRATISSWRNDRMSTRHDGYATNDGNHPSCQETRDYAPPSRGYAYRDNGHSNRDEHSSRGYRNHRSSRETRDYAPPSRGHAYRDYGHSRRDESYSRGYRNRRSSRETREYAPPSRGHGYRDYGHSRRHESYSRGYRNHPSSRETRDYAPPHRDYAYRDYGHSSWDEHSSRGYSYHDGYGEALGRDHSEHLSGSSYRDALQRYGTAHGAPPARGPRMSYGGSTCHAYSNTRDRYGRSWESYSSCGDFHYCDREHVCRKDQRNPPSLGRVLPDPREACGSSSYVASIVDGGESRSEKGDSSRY
UniProt Q96K19: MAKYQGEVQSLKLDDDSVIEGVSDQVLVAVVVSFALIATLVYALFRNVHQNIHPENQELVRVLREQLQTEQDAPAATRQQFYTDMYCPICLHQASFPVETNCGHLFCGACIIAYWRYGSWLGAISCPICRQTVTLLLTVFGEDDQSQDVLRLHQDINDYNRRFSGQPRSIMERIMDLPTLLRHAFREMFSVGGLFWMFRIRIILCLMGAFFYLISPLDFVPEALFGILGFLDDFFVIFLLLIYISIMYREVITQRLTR
UniProt Q5EBL4: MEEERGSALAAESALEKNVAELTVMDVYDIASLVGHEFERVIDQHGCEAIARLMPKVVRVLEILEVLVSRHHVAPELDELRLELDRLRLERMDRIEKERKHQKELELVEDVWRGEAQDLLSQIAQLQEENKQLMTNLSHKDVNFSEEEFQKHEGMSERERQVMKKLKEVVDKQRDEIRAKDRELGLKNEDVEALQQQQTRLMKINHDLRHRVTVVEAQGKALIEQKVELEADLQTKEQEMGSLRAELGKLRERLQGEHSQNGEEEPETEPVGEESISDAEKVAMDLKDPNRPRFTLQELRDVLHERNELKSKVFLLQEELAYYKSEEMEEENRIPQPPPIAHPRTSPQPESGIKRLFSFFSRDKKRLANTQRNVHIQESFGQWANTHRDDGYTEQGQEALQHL

What was measured:
Assay in all cases: log2 fold change, soluble protein after heating vs DMSO (PISA); higher = thermal stabilisation; K562 cells, 10 uM, 30 min; active = over 0.2 and 3.5 SD of the protein, either way, in both replicates (recomputed)
[1] = compound: C1=CC=C(C=C1)[C@H](COC2=CC3=C(C=C2)NC(=O)N3)NC(=O)C4=CC=CN(C4=O)CC5=CC(=C(C=C5)F)F
How it was run: (§1)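 Values are thermal stability changes relative to control samples and are taken from duplicates. They are stated as log2 fold changes. Before quantification by TMTpro 16plex LC-MS/MS with equalised channel sums, K562 cells at 2×10^6 cells/mL were treated with 10 μM compound for 30 min, heated in aliquots for 3 min across 48°C-58°C, pooled, extracted in PBS with 0.5% NP-40 at 4°C, and centrifuged at 21,000xg for 90 min to give the soluble supernatant.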

[2] = compound: CC1=C(SC2=C1C(=N[C@H](C3=NN=C(N32)C)CC(=O)N)C4=CC=C(C=C4)Cl)C
How it was run: as §1

[3] = compound: CC1=C2C(=CC=C1)N=C(N(C2=O)C3=CC=CC=C3C)CN4C=NC5=C(N=CN=C54)N
How it was run: as §1

[4] = compound: Cc1sc2c(c1C)C(c1ccc(Cl)cc1)=N[C@@H](CC(=O)OC(C)(C)C)c1nnc(C)n1-2
How it was run: as §1

[5] = compound: c1ccc([C@@H]2C[C@H]2NC2CCNCC2)cc1
How it was run: as §1

Measured: log2 fold change

RNF213 isoform 4 (UniProt Q63HN8)
inactive: [1] -0.032 | [2] 0.11 | [3] -0.016 | [4] -0.115 | [5] -0.089

RNF14 (UniProt Q9UBS8)
inactive: [1] -0.031 | [2] -0.005 | [3] -0.048 | [4] -0.013 | [5] 0.03

RNF114 (UniProt Q9Y508)
inactive: [1] -0.039 | [2] 0.025 | [3] 0.039 | [4] -0.005 | [5] 0.012

RBM39 (UniProt Q14498)
inactive: [1] 0.015 | [2] -0.004 | [3] -0.02 | [4] 0.019 | [5] 0.158

RHOXF2 (UniProt Q9BQY4)
inactive: [1] 0.004 | [2] -0.031 | [3] 0.024 | [4] 0.012 | [5] 0.057

RILP (UniProt Q96NA2)
inactive: [1] 0.031 | [2] 0.055 | [3] 0.026 | [4] -0.003 | [5] -0.014

RFX1 (UniProt P22670)
inactive: [1] -0.018 | [2] 0.027 | [3] 0.003 | [4] -0.032 | [5] -0.015

RBMX (UniProt P38159)
inactive: [1] 0.101 | [2] -0.17 | [3] -0.112 | [4] 0.031 | [5] 0.054

RFXAP (UniProt O00287)
inactive: [1] -0.008 | [2] 0.008 | [3] -0.013 | [4] -0.038 | [5] 0.003

RFK (UniProt Q969G6)
inactive: [1] 0.024 | [2] 0.028 | [3] -0.018 | [4] -0.017 | [5] -0.002

RNF113A (UniProt O15541)
inactive: [1] -0.009 | [2] 0.026 | [3] 0.021 | [4] -0.002 | [5] 0.048

RECQL (UniProt P46063)
inactive: [1] -0.012 | [2] 0.087 | [3] 0.015 | [4] -0.029 | [5] -0.02

REEP6 (UniProt Q96HR9)
inactive: [1] 0.038 | [2] 0.065 | [3] -0.02 | [4] -0.007 | [5] 0.052

RBX1 (UniProt P62877)
inactive: [1] -0.031 | [2] 0.005 | [3] 0.031 | [4] 0.02 | [5] 0.014

RCC2 (UniProt Q9P258)
inactive: [1] -0.01 | [2] 0.047 | [3] 0.095 | [4] -0.013 | [5] -0.015

RHOG (UniProt P84095)
inactive: [1] 0.024 | [2] -0.08 | [3] 0.028 | [4] -0.029 | [5] -0.076

RHOB (UniProt P62745)
inactive: [1] -0.057 | [2] -0.201 | [3] -0.057 | [4] -0.092 | [5] 0.032

RCC1L (UniProt Q96I51)
inactive: [1] -0.001 | [2] 0.103 | [3] 0.018 | [4] -0.018 | [5] 0.019

REEP4 (UniProt Q9H6H4)
inactive: [1] -0.004 | [2] -0.034 | [3] -0.023 | [4] 0.081 | [5] 0.003

RCE1 (UniProt Q9Y256)
inactive: [1] -0.007 | [2] 0.086 | [3] 0.059 | [4] -0.092 | [5] 0.076

RIPK1 (UniProt Q13546)
inactive: [1] -0.058 | [2] -0.134 | [3] 0.033 | [4] -0.048 | [5] -0.049

RCL1 (UniProt Q9Y2P8)
inactive: [1] 0.055 | [2] -0.181 | [3] -0.222 | [4] 0.283 | [5] 0

Pulled one by one from the list above (two):
REEP4 (UniProt Q9H6H4)
inactive: [1] -0.004 | [2] -0.034 | [3] -0.023 | [4] 0.081 | [5] 0.003

RCE1 (UniProt Q9Y256)
inactive: [1] -0.007 | [2] 0.086 | [3] 0.059 | [4] -0.092 | [5] 0.076

Following part.

RIOK1 (UniProt Q9BRS2)
inactive: [1] 0.015 | [2] -0.044 | [3] -0.018 | [4] 0.032 | [5] 0.024

REPS1 (UniProt Q96D71)
inactive: [1] 0.065 | [2] -0.032 | [3] 0.067 | [4] 0.184 | [5] -0.021

RNF146 (UniProt Q9NTX7)
inactive: [1] -0.113 | [2] -0.053 | [3] 0.028 | [4] -0.068 | [5] -0.003

RNF185 (UniProt Q96GF1)
inactive: [1] -0.157 | [2] 0 | [3] 0.006 | [4] 0.104 | [5] -0.168

RNASE4 (UniProt P34096)
inactive: [1] -0.093 | [2] -0.203 | [3] 0.1 | [4] 0.063 | [5] -0.071

RNF168 (UniProt Q8IYW5)
inactive: [1] 0.108 | [4] -0.025

RNF20 (UniProt Q5VTR2)
inactive: [1] -0.008 | [2] 0.137 | [4] 0.121 | [5] 0.03

RBMY1E (UniProt A6NEQ0)
inactive: [1] 0.063 | [2] -0.02 | [4] 0.001 | [5] 0.145

RNF166 (UniProt Q96A37)
inactive: [2] 0.03 | [3] -0.06 | [4] -0.055 | [5] 0.037

RNF170 (UniProt Q96K19)
inactive: [1] -0.084 | [2] -0.003 | [3] 0.18 | [5] 0.053

RILPL1 (UniProt Q5EBL4)
inactive: [2] -0.065 | [3] 0.131 | [4] -0.029 | [5] -0.207

RECQL5 (UniProt O94762)
inactive: [2] 0.021 | [3] 0.137 | [5] 0.034

RMI2 (UniProt Q96E14)
inactive: [2] -0.222 | [3] -0.052 | [4] -0.216 | [5] 0.009

RGS14 (UniProt O43566)
inactive: [1] -0.005 | [2] 0.043 | [3] 0.391 | [4] 0.171 | [5] 0.105

RCL1 (UniProt Q5VZU2)
inactive: [4] 0.095

RIF1 (UniProt Q5UIP0)
inactive: [2] -0.206 | [3] -0.153 | [4] 0.015 | [5] 0.053

RHBDD1 (UniProt Q8TEB9)
inactive: [1] 0.051 | [2] 0.04 | [3] -0.255 | [5] 0.033
